Test: general procedure: solution-phase peptide synthesis; 1-(3-dimethylaminopropyl)-3-ethylcarbodiimide hydrochloride / N-hydroxysuccinimi
Conditions: trifluoroacetate; for conjugation yield: conjugation step

| Substance | conjugation yield | step yield (late stage modification step) | also measured |
| --- | --- | --- | --- |
| N-(tert-butoxycarbonyl)glycylglycyl-L-phenylalanyl-N-(4-{[(1S,9S)-9-ethyl-5-fluoro-9-hydroxy-4-methyl-10,13-dioxo-2,3,9,10,13,15-hexahydro-1H,12H-benzo[de]pyrano[3′,4′:6,7]indolizino[1,2-b]quinolin-1-yl]amino}-4-oxobutyl)glycinamide | 73% | – | – |
| N^6-(tert-butoxycarbonyl)-L-lysylglycylglycyl-L-phenylalanyl-N-[(1S,9S)-9-ethyl-5-fluoro-9-hydroxy-4-methyl-10,13-dioxo-2,3,9,10,13,15-hexahydro-1H,12H-benzo[de]pyrano[3′,4′:6,7]indolizino[1,2-b]quinolin-1-yl]glycinamide | – | 71% | – |
| N^6-(tert-butoxycarbonyl)-N^2-[(9H-fluoren-9-ylmethoxy)carbonyl]-L-lysylglycylglycyl-L-phenylalanyl-N-[(1S,9S)-9-ethyl-5-fluoro-9-hydroxy-4-methyl-10,13-dioxo-2,3,9,10,13,15-hexahydro-1H,12H-benzo[de]pyrano[3′,4′:6,7]indolizino[1,2-b]quinolin-1-yl]glycinamide | – | – | step yield (coupling step): 98% |
| N-[(9H-fluoren-9-ylmethoxy)carbonyl]glycylglycyl-N-(4-{[(1S,9S)-9-ethyl-5-fluoro-9-hydroxy-4-methyl-10,13-dioxo-2,3,9,10,13,15-hexahydro-1H,12H-benzo[de]pyrano[3′,4′:6,7]indolizino[1,2-b]quinolin-1-yl]amino}-4-oxobutyl)-L-phenylalaninamide | 40% | – | – |
| N^6-(tert-butoxycarbonyl)-N^2-[6-(2,5-dioxo-2,5-dihydro-1H-pyrrol-1-yl)hexanoyl]-L-lysylglycylglycyl-L-phenylalanyl-N-[(1S,9S)-9-ethyl-5-fluoro-9-hydroxy-4-methyl-10,13-dioxo-2,3,9,10,13,15-hexahydro-1H,12H-benzo[de]pyrano[3′,4′:6,7]indolizino[1,2-b]quinolin-1-yl]glycinamide | – | 21% | – |
| N^2-[6-(2,5-dioxo-2,5-dihydro-1H-pyrrol-1-yl)hexanoyl]-L-lysylglycylglycyl-L-phenylalanyl-N-[(1S,9S)-9-ethyl-5-fluoro-9-hydroxy-4-methyl-10,13-dioxo-2,3,9,10,13,15-hexahydro-1H,12H-benzo[de]pyrano[3′,4′:6,7]indolidino[1,2-b]quinolin-1-yl]glycineamide trifluoroacetate | – | 78% | – |

Reference: patent US10729782B2 (DAIICHI SANKYO COMPANY, LIMITED, priority 2012, dated 2020)
